Assay results taken from patent US10918730B2, “Pegylated bioactive peptides and uses thereof” (GRIFFON PHARMACEUTICALS INC., priority 2016, dated 2021).
Some of these results come from one statement about several compounds together. Some ranges recur; such a range may be that of the whole group of compounds.

Target: T1, human GHRH receptor (Homo sapiens, UniProt Q02643)
T1 sequence (Q02643 23-423): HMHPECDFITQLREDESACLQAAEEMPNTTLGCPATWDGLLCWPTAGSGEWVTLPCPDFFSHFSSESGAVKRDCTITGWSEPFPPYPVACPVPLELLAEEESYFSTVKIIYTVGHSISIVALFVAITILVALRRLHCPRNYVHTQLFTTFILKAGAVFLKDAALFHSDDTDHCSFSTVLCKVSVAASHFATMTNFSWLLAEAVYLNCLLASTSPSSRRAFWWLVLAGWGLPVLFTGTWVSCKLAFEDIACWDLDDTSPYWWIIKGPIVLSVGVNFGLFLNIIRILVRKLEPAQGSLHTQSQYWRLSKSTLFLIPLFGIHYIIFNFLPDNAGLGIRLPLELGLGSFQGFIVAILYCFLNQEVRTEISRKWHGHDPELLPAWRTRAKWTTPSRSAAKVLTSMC
Assay: Hit Hunter (DiscoveRx) cAMP agonist assay in cells expressing GHRH receptor
Format: cell-based
Settings: Table 3 experiment
Procedure: For agonist determination, cells were incubated with sample to induce response. Media was aspirated from cells and replaced with 15 μL 2:1 HBSS/10 mM Hepes:cAMP XS+ Ab reagent. […] Vehicle concentration was 1%. […] Microplates were read following signal generation with a PerkinElmer Envision™ instrument for chemiluminescent signal detection. Compound activity was analyzed using CBIS data analysis suite (ChemInnovation, CA).

Row | Substance | fold more potent than the native peptide
1 | YaDAIFTAC(Peg-2K)YROVLAQLSAROALC(Peg-2K)DILSRN-NH2 [Analog 13 (C9, 24), Cys9 and Cys24 each conjugated to about 2 kDa PEG] | 2-4 fold
2 | YaDAIFTAC(Peg-2K)YROVLAQLSAROALQDILSRNC(Peg-2K)-NH2 [Analog 11 (C9, 31), Cys9 and Cys31 each conjugated to about 2 kDa PEG] | 2-4 fold
3 | YaDAIFTAC(Peg-2K)YROVLAQLSAROC(Peg-2K)LQDILSRN-NH2 [Analog 14 (C9, 22), Cys9 and Cys22 each conjugated to about 2 kDa PEG] | 2-4 fold
